From patent US20050196469A1, “Micronutrient supplement combination for acne treatment and prevention” (priority 2004, published 2005)
At least one structure is not confirmed: it was looked up by name or label, or the drawing left a doubt.

System: acneiform eruptions
Experiment: Case reports: effect on acneiform eruptions in patients
Format: in vivo, human
Details: patient one, earlier and current treatment
Description: The effect of the micronutrient/mineral supplement of the present invention on acneiform eruptions is illustrated below.
1. patient six was a person with a long history of cystic acne vulgaris. They had no history of polycystic ovarian syndrome, ovarian cysts, oligomenorrhea or amenorrhea. Topical benzoyl peroxide and antibiotics provided no relief of their acne. They refused both oral contraceptive use or a trial of the diuretic spironolactone for possible acne benefits. They were contemplating a trial of accutane, when they decided to see an endocrinologist for a possible hormone etiology of their skin condition. Complete blood count, chemistries, thyroid function tests, AM cortisol were normal. Vitamin B12 and folate concentrations were normal; the total testosterone was 40 ng and not elevated; the androgenic steroids—DHEAS and androstenedione were normal. The 25 hydroxyvitamin D concentration was <5 ng/ml and intact parathyroid hormone (PTH) was elevated at 69 pg/ml (normal up to 65 pg). […] At four months, the 25 vitamin D concentration was 31 ng/ml and the total vitamin D3 was reduced to 2000 IU daily.
2. patient two was a person with chronic fatigue, inability to lose weight and severe chronic acne vulgaris unresponsive to topical treatments. They had been on Accutane multilple times but their skin improvement was transient with continual periodic acne eruptions. […]

Compound: CN(C)c1ccc(O)c2c1C[C@H]1C[C@H]3[C@H](N(C)C)C(O)=C(C(N)=O)C(=O)[C@@]3(O)C(O)=C1C2=O [minocycline]
- effect on acne: without any effect
